The source of these data is publication PMC9772882.

Assay [1] addresses T1, ameloblastin-FLAG fusion protein (full length ameloblastin with a C-terminal FLAG tag) (UniProt O55189).
T1 sequence: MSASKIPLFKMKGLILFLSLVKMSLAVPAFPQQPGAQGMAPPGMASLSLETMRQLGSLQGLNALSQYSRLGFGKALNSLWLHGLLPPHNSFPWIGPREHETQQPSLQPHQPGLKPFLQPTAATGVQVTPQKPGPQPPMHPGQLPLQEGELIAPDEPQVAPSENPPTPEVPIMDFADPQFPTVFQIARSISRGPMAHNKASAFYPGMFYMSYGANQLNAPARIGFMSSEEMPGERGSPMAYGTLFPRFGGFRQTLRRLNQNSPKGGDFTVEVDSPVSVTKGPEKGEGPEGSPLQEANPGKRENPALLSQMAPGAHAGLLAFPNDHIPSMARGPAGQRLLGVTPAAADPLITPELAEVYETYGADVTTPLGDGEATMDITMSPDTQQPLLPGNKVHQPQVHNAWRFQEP
Put plainly: co-IP; anti-FLAG agarose holds ameloblastin-FLAG, overnight, modified PBS with 2 mM CaCl2, 1 mM MgCl2, pH 4.0; Western blot with anti-CBP for amelogenin. For orientation: Immunoblotting shows a protein as a band on a membrane.

Assay [2] has as its target T1, ameloblastin-FLAG fusion protein (full length ameloblastin with a C-terminal FLAG tag). Put plainly: co-IP; anti-FLAG agarose holds ameloblastin-FLAG, overnight, modified PBS with 2 mM CaCl2, 1 mM MgCl2, pH 4.5; Western blot with anti-CBP for amelogenin.
The target in assay [3] is CBP-SBP-amelogenin fusion protein (amelogenin N-terminal 92 amino acids, N92) (mouse). Put plainly: pull-down; streptavidin sepharose holds CBP-SBP-amelogenin N92, overnight, modified PBS with 2 mM CaCl2, 1 mM MgCl2, pH 4.0; Western blot with anti-FLAG for ameloblastin.
For assay [4] the target is unchanged. Put plainly: pull-down; streptavidin sepharose holds CBP-SBP-amelogenin N92, overnight, modified PBS with 2 mM CaCl2, 1 mM MgCl2, pH 4.5; Western blot with anti-FLAG for ameloblastin.

Results are given in words; binding and its absence hold for the method and conditions named. Binding seen in cells or lysates may run through a third protein. Binding calls can cover weak binding; strength is not graded here. Tags and fused reporters may be left off the sequences shown.

Turning to “CBP-SBP-amelogenin fusion protein (amelogenin N-terminal 92 amino acids, N92) (mouse) (domain or fragment)”, the binding result in assay [1] and in assay [2] was “binds” throughout.

B1: ameloblastin-FLAG fusion protein (full length ameloblastin with a C-terminal FLAG tag) (protein, UniProt O55189 1-407)
chain: MSASKIPLFKMKGLILFLSLVKMSLAVPAFPQQPGAQGMAPPGMASLSLETMRQLGSLQGLNALSQYSRLGFGKALNSLWLHGLLPPHNSFPWIGPREHETQQPSLQPHQPGLKPFLQPTAATGVQVTPQKPGPQPPMHPGQLPLQEGELIAPDEPQVAPSENPPTPEVPIMDFADPQFPTVFQIARSISRGPMAHNKASAFYPGMFYMSYGANQLNAPARIGFMSSEEMPGERGSPMAYGTLFPRFGGFRQTLRRLNQNSPKGGDFTVEVDSPVSVTKGPEKGEGPEGSPLQEANPGKRENPALLSQMAPGAHAGLLAFPNDHIPSMARGPAGQRLLGVTPAAADPLITPELAEVYETYGADVTTPLGDGEATMDITMSPDTQQPLLPGNKVHQPQVHNAWRFQEP
As for B1, the binding result in assay [3] and in assay [4] was “binds” in each case.
